Measured values published in article PMC11066113.

The chains behind the UniProt entries cited, without tags or fusion partners. Where a name states a change or a piece, a line headed by the entry shows the natural chain unless it says otherwise. Residues count along the entry.
UniProt O60603, residues 21-588: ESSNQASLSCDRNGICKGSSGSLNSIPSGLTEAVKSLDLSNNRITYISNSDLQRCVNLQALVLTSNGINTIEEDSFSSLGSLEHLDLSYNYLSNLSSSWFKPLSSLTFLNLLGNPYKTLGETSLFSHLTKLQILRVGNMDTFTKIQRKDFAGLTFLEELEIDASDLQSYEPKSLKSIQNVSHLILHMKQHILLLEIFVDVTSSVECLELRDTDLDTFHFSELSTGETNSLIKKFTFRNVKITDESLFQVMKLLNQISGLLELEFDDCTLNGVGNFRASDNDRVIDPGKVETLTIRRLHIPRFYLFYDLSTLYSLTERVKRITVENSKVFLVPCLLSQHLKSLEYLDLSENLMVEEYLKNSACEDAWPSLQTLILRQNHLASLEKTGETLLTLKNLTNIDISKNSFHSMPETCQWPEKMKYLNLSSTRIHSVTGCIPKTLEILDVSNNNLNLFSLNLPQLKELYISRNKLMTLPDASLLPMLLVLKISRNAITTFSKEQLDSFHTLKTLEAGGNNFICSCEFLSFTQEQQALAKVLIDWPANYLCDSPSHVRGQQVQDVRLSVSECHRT
UniProt Q9QUK6, residues 26-835: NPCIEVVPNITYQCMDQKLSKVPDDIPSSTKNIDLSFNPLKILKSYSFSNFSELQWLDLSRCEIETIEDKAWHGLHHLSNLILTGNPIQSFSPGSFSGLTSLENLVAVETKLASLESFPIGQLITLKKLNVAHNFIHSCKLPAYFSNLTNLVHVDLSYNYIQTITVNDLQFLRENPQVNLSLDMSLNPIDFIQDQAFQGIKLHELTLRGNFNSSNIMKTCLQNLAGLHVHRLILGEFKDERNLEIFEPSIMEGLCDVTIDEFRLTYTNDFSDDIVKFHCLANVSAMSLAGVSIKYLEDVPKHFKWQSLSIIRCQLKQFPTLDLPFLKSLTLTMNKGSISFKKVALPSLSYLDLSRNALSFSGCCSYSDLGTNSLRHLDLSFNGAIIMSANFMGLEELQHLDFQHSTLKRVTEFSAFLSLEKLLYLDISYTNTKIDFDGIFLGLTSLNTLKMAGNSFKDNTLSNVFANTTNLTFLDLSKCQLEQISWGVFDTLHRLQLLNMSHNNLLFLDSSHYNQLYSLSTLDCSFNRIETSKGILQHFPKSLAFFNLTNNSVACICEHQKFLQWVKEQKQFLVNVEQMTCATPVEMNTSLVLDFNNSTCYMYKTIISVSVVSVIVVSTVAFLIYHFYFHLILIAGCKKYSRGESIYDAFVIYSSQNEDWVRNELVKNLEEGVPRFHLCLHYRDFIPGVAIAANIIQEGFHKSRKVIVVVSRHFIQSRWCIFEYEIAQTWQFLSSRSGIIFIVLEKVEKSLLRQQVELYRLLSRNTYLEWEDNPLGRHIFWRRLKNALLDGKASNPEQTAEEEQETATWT
UniProt O00206, residues 24-839: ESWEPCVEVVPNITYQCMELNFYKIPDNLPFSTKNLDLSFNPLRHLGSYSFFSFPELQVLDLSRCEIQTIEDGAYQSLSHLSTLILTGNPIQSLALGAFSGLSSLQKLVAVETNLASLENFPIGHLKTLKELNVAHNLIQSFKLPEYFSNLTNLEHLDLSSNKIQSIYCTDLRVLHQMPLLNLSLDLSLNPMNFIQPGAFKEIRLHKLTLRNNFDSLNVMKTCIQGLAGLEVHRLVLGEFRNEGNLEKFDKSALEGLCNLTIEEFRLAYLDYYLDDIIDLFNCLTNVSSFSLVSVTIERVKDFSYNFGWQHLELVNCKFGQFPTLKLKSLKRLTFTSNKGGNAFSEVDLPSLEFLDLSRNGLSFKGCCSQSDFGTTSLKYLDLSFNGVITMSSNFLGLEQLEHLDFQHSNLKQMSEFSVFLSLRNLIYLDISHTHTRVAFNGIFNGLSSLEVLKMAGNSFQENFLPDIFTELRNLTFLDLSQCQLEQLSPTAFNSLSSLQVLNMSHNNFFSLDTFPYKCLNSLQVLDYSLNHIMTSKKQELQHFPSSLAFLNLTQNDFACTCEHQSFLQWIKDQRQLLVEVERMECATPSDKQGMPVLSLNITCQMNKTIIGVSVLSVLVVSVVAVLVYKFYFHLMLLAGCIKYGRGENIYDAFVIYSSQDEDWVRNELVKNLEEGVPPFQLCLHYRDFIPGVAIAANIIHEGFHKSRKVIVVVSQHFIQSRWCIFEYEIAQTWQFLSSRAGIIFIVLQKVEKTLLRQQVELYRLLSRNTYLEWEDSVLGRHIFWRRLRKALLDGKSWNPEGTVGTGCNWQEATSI
UniProt Q172F2: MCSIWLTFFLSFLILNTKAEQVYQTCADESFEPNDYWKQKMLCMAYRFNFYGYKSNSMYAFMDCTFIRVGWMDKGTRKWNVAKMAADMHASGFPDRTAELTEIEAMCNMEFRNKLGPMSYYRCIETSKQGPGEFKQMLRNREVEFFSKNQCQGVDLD

Legend:
[1] = molecular target: human TLR2 extracellular domain (human) (UniProt O60603); test: co-IP; lysate of HEK293T cells transfected with a Myc-tagged TLR ECD incubated with 80 ng purified V5-tagged AaNRP at 4 °C, precipitated with anti-Myc tag antibody (magnetic beads), five washes with IP lysis buffer, blots for V5 and Myc; only the binder purified
[2] = molecular target: T1, murine Toll-like receptor 6 extracellular domain (mouse) (UniProt Q9EPW9); test: as above
T1 sequence: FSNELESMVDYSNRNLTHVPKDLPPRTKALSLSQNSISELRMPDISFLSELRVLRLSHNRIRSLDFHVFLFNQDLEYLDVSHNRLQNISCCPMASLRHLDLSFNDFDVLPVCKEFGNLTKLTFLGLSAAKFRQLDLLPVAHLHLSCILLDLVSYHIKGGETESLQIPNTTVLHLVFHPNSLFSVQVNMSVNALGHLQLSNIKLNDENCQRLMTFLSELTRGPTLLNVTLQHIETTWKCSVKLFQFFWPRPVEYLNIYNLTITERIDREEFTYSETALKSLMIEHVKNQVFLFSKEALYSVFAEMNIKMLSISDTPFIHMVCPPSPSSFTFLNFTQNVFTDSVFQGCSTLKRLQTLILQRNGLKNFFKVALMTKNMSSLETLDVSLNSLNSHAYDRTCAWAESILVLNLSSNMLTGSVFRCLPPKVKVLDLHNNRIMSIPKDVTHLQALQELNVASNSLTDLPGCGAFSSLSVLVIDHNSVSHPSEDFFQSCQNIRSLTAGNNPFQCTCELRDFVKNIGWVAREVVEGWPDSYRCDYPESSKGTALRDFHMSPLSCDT

[3] = molecular target: murine TLR4 (on transfected HEK293T cells) (mouse) (UniProt Q9QUK6); test: flow cytometry on cells; HEK293T cells transfected with TLR or vector plasmids incubated with AaNRP (1 μg/10^6 cells) at 4 °C for 2 h; detected with anti-AaNRP polyclonal antibody and PE-labeled secondary antibody; proportion of PE+ cells, vector control deducted; only the binder purified
[4] = molecular target: human TLR4 (on transfected HEK293T cells) (human) (UniProt O00206); test: as above
[5] = molecular target: T2, murine TLR1 (on transfected HEK293T cells) (mouse) (UniProt Q9EPQ1); test: as above
T2 sequence: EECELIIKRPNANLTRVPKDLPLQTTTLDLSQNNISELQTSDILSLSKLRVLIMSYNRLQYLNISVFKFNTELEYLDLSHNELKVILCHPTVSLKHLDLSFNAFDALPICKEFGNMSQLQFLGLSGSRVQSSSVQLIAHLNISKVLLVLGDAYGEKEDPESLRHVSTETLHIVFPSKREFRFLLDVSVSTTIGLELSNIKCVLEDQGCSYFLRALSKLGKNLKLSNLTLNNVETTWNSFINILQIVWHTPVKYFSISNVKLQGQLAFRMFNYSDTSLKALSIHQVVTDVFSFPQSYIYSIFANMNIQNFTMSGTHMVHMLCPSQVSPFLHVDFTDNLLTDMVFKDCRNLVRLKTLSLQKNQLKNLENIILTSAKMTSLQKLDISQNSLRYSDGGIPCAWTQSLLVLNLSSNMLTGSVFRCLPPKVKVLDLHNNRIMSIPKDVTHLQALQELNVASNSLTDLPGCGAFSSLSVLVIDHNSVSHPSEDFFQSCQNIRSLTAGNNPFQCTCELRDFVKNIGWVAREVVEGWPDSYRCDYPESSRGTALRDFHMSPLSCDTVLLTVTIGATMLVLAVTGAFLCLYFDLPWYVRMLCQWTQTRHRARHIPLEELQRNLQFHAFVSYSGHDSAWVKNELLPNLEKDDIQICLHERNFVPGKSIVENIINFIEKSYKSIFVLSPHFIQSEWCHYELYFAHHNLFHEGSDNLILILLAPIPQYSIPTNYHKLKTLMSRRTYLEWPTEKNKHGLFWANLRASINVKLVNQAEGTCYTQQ

[6] = molecular target: T3, human TLR1 (on transfected HEK293T cells) (human) (UniProt Q15399); test: as above
T3 sequence: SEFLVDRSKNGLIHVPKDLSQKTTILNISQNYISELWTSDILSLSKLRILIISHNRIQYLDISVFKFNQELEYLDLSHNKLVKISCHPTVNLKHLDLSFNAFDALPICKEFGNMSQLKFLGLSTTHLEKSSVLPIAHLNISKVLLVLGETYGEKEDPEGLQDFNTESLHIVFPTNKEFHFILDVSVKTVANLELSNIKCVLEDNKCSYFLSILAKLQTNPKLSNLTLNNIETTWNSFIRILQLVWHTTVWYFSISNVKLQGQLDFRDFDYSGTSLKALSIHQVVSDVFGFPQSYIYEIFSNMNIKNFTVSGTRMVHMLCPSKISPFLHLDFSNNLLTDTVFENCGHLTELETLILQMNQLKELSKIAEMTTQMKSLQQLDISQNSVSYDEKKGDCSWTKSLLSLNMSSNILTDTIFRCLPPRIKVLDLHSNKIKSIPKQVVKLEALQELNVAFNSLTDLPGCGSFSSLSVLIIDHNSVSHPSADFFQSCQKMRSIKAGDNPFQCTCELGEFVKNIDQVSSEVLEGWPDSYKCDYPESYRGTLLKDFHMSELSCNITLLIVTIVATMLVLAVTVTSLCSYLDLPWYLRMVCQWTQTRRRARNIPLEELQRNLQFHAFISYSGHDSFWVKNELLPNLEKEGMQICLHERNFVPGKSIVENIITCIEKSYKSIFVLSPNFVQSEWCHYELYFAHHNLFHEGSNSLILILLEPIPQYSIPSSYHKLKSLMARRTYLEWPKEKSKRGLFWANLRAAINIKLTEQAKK

A. aegypti Neutrophil Recruitment Protein (AaNRP) (from UniProt Q172F2)
binding [1]: no binding (tested: 80 ng of purified AaNRP)
binding [2]: no binding (tested: 80 ng of purified AaNRP)
binding [3]: binds
binding [4]: binds
binding [5]: binds
binding [6]: binds

No constants are given. Whether binding was seen depends on the method and setting. For part of these data: A result given as binding can be weak or reduced; the word gives no strength. For part of these data: Binding seen in cells or lysates may run through a third protein.
